Measurements published in article PMC6677536 (2019).
These are yes or no findings as the source states them, for the method shown. In cells and extracts the contact can be indirect. Some entries that bind do so weakly or less than the wild type.

Chains of the proteins cited; added tags and fusions are not shown.
UniProt Q9VV73: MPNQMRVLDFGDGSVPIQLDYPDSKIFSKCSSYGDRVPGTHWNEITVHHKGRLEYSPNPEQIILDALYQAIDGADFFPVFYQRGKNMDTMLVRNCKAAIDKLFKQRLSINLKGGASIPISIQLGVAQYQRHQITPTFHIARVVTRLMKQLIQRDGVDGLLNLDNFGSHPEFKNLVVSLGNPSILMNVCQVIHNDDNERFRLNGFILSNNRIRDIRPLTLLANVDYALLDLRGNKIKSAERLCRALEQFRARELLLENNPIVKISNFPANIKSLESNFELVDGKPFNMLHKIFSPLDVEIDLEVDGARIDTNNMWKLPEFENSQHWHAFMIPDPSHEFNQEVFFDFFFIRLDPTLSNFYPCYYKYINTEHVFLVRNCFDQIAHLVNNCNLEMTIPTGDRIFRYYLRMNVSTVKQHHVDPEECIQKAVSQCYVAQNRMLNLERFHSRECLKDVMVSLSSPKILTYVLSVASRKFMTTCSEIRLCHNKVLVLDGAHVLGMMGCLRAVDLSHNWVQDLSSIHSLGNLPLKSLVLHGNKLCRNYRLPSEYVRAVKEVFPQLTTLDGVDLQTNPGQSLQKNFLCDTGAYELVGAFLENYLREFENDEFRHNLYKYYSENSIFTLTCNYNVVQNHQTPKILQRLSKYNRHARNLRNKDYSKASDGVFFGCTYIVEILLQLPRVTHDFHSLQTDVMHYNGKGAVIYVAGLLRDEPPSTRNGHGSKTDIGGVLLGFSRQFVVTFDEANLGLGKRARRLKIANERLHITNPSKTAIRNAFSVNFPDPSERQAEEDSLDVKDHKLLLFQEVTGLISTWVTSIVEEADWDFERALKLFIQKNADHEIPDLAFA

Molecular target: Nxf2 expression construct in OSCs (D. melanogaster) (UniProt Q9VV73)
Assay: co-IP; FLAG-tag co-immunoprecipitation (anti-FLAG M2 magnetic beads, 2 hr at 4°C) from lysates of transfected OSCs; western blot

B1: Piwi in OSC lysate (protein, UniProt Q9VKM1 1-843)
chain: MADDQGRGRRRPLNEDDSSTSRGSGDGPRVKVFRGSSSGDPRADPRIEASRERRALEEAPRREGGPTERKPWGDQYDYLNTRPAELVSKKGTDGVPVMLQTNFFRLKTKPEWRIVHYHVEFEPSIENPRVRMGVLSNHANLLGSGYLFDGLQLFTTRKFEQEITVLSGKSKLDIEYKISIKFVGFISCAEPRFLQVLNLILRRSMKGLNLELVGRNLFDPRAKIEIREFKMELWPGYETSIRQHEKDILLGTEITHKVMRTETIYDIMRRCSHNPARHQDEVRVNVLDLIVLTDYNNRTYRINDVDFGQTPKSTFSCKGRDISFVEYYLTKYNIRIRDHNQPLLISKNRDKALKTNASELVVLIPELCRVTGLNAEMRSNFQLMRAMSSYTRMNPKQRTDRLRAFNHRLQNTPESVKVLRDWNMELDKNVTEVQGRIIGQQNIVFHNGKVPAGENADWQRHFRDQRMLTTPSDGLDRWAVIAPQRNSHELRTLLDSLYRAASGMGLRIRSPQEFIIYDDRTGTYVRAMDDCVRSDPKLILCLVPNDNAERYSSIKKRGYVDRAVPTQVVTLKTTKNRSLMSIATKIAIQLNCKLGYTPWMIELPLSGLMTIGFDIAKSTRDRKRAYGALIASMDLQQNSTYFSTVTECSAFDVLANTLWPMIAKALRQYQHEHRKLPSRIVFYRDGVSSGSLKQLFEFEVKDIIEKLKTEYARVQLSPPQLAYIVVTRSMNTRFFLNGQNPPPGTIVDDVITLPERYDFYLVSQQVRQGTVSPTSYNVLYSSMGLSPEKMQKLTYKMCHLYYNWSGTTRVPAVCQYAKKLATLVGTNLHSIPQNALEKKFYYL
binding: binds weakly
